Source: article PMC5957441
Results are given in words; binding and its absence hold for the method and conditions named. Binding seen in cells or lysates may run through a third protein. Some binding calls cover weakened binding; strength is not graded here.

Amino acid sequences for entries named in this document (tags omitted). Residues count along the entry.
UniProt P08581, residues 25-1390: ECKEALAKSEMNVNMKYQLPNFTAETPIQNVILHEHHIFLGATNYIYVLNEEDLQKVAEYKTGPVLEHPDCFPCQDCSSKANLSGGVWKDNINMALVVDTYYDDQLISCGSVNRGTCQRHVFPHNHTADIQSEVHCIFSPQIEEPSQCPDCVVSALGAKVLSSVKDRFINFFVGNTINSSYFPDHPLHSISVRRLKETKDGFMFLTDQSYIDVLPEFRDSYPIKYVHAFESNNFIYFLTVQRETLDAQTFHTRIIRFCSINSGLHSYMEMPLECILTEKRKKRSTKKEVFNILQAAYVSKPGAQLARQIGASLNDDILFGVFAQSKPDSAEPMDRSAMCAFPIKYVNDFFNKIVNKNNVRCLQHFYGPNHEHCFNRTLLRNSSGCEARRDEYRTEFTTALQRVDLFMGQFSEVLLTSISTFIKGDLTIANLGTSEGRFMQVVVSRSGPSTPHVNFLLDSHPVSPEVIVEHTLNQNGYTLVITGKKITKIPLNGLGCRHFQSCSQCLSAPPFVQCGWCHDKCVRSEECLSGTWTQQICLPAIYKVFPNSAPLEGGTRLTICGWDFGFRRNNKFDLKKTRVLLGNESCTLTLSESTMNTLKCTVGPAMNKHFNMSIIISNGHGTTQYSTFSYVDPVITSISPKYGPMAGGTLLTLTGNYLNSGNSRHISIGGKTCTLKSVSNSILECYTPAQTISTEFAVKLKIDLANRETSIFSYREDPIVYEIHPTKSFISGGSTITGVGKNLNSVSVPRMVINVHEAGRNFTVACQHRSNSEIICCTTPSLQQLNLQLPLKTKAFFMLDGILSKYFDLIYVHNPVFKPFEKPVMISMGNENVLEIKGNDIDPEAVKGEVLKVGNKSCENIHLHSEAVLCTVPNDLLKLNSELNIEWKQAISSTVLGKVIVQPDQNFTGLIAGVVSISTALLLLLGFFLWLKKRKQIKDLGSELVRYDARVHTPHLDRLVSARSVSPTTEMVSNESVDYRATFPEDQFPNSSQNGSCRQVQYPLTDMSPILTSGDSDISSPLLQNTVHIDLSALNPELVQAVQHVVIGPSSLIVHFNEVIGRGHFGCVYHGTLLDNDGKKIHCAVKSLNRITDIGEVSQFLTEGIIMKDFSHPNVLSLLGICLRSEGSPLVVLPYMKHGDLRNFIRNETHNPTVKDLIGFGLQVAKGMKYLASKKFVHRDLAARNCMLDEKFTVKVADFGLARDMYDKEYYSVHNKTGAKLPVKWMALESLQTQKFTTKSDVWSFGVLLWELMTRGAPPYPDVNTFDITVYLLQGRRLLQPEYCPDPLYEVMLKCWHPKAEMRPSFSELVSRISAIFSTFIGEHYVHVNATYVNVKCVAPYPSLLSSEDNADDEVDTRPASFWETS
UniProt P40763: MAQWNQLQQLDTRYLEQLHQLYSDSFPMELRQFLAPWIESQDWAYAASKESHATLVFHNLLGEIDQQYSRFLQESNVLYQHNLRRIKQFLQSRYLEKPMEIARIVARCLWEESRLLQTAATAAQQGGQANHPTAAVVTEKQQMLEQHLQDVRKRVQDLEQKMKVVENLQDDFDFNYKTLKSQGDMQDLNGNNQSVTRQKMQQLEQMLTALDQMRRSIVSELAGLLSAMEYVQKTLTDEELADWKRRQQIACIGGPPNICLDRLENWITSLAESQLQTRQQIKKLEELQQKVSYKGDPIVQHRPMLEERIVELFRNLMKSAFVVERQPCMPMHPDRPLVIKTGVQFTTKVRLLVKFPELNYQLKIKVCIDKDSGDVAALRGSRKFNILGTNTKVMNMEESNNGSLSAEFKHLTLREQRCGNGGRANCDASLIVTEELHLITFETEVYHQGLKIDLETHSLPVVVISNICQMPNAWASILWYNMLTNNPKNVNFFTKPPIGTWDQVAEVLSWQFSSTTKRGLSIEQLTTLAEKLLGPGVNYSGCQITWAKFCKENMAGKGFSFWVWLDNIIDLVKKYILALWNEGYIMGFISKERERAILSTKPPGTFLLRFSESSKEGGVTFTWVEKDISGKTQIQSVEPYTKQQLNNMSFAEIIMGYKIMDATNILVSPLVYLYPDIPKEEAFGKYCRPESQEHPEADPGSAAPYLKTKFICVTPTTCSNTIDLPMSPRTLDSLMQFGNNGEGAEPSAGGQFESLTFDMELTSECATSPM

Target: hepatocyte growth factor receptor (HGFR/MET) (human (endogenous in A431 and in primary human airway basal cells)) (UniProt P08581)
Assay: co-IP; A431 cells, serum-starved overnight, treated with vehicle, 3 ng/ml or 50 ng/ml hHGF for 30 minutes; lysis in IP Cell Lysis Buffer; 2 mg protein per IP, anti-MET antibody overnight at 4°C, Protein A Dynabeads; western blot

With STAT3 (from UniProt P40763 1-770) the binding was “binds”.
